According to PubChem BioAssay AID248 (DTP/NCI, 2004):
The list is a part of this screen's results and no random one: it is rich in T/C values a quarter to a half above the control, in often repeated tests (any T/C) and in doses without a T/C. Further doses and runs are listed elsewhere. T/C: endpoint of the treated group in % of that of the vehicle group. Some entries give survivors of the animals treated and no T/C: the source holds a T/C of zero for them, seemingly a mark for toxic or unscored doses. Some survivor counts are full or nearly so, which does not show that the dose was tolerated: the source hardly ever lists a survival T/C far under the control, and the zero likely stands for such cases as well. Survivors were counted at the toxicity check, usually on the fifth day, unless a day is given; later deaths do not show. Schedule codes are those of the source, taken here to give the interval after Q, in days (D) or hours (H), and the number of doses after X. Some doses were run more than once; the values are given in rising order. Some schedule codes hold Z or #, which are not explained here. Where survival is the endpoint, the PubChem record calls one and a half times the control and up active, and a quarter to a half above the control has no call in these data; cut-offs in other NCI protocols can differ. Some T/C values carry the count of animals alive at the toxicity check (mostly the fifth day); where none is given, no animal had died by that day.

Tested on: L1210 leukemia ip in BDF1 mice, survival T/C
Assay: NCI In Vivo Anticancer Drug Screen. Data for tumor model L1210 Leukemia (intraperitoneal) in B6D2F1 (BDF1) mice
Settings: T/C endpoint: mean survival time, higher T/C = longer survival
[1] = dose: 100.0 mg/kg/injection, schedule: Q01DX001 (ip), vehicle: carboxymethylcellulose (CMC)
[2] = dose: 200.0 mg/kg/injection, schedule: Q01DX001 (ip), vehicle: carboxymethylcellulose (CMC)
[3] = dose: 400.0 mg/kg/injection, schedule: Q01DX001 (ip), vehicle: carboxymethylcellulose (CMC)
[4] = dose: 400.0 mg/kg/injection, schedule: Q01DX009 (ip), vehicle: Klucel (hydroxypropylcellulose) (HPC)
[5] = dose: 100.0 mg/kg/injection, schedule: Q01DX009 (ip), vehicle: saline with Tween-80

`CCN1C=C/C(=C\C=C/c2cc[n+](CC)c3ccccc23)c2ccccc21` was tested. Which T/C (dose: 0.08 mg/kg/injection, schedule: Q01DX Z (ip), vehicle: methylcellulose (MC)) did it give?
The T/C was 128 % of control.

What about the T/C (dose: 0.11 mg/kg/injection, schedule: Q01DX Z (ip), vehicle: methylcellulose (MC)) of the same compound?
Its T/C is 128 % of control [5 of 6 alive].

What about the T/C (dose: 0.15 mg/kg/injection, schedule: Q01DX Z (ip), vehicle: methylcellulose (MC)) of the same compound?
The T/C was 127 % of control.

What about the T/C (dose: 0.2 mg/kg/injection, schedule: Q01DX Z (ip), vehicle: methylcellulose (MC)) of the same compound?
Its T/C is 107, 117, 119, 124, 202 % of control [5 of 6 alive].

What about the survivor count (dose: 0.4 mg/kg/injection, schedule: Q01DX Z (ip), vehicle: methylcellulose (MC)) of the same compound?
The survivor count was 2 of 6.

What about the survivor count (dose: 0.44 mg/kg/injection, schedule: Q03HX024 (ip), vehicle: saline with Tween-80) of the same compound?
The survivor count was 9 of 10.

What about the survivor count (dose: 0.48 mg/kg/injection, schedule: Q03HX024 (ip), vehicle: saline with Tween-80) of the same compound?
Its survivor count is 6 of 10.

And the survivor count (dose: 0.5 mg/kg/injection, schedule: Q01DX Z (ip), vehicle: methylcellulose (MC))?
Its survivor count is 3 of 6.

What about the survivor count (dose: 0.74 mg/kg/injection, schedule: Q03HX024 (ip), vehicle: saline with Tween-80) of the same compound?
The survivor count was 6 of 10.

And the survivor count (dose: 1.0 mg/kg/injection, schedule: Q04DX003 (ip), vehicle: saline with Tween-80)?
The survivor count was 6 of 10.

What about the survivor count (dose: 1.1 mg/kg/injection, schedule: Q01DX009 (ip), vehicle: saline with Tween-80) of the same compound?
The survivor count was 3 of 10.

And the survivor count (dose: 1.1 mg/kg/injection, schedule: Q03HX024 (ip), vehicle: saline with Tween-80)?
The survivor count was 0 of 10 and 1 of 10.

And the survivor count (dose: 1.7 mg/kg/injection, schedule: Q01DX009 (ip), vehicle: saline with Tween-80)?
The survivor count was 4 of 10 and 6 of 10.

What about the survivor count (dose: 1.7 mg/kg/injection, schedule: Q03HX024 (ip), vehicle: saline with Tween-80) of the same compound?
The survivor count was 0 of 10.

What about the survivor count (dose: 2.0 mg/kg/injection, schedule: Q01DX009 (ip), vehicle: saline) of the same compound?
Its survivor count is 3 of 6.

And the survivor count (dose: 2.5 mg/kg/injection, schedule: Q01DX009 (ip), vehicle: saline with Tween-80)?
Its survivor count is 0 of 10.

What about the survivor count (dose: 2.5 mg/kg/injection, schedule: Q03HX024 (ip), vehicle: saline with Tween-80) of the same compound?
The survivor count was 0 of 10.

And the survivor count (dose: 3.3 mg/kg/injection, schedule: Q04DX003 (ip), vehicle: saline with Tween-80)?
Its survivor count is 4 of 10 and 9 of 10.

What about the survivor count (dose: 4.4 mg/kg/injection, schedule: Q01DX001 (ip), vehicle: saline with Tween-80) of the same compound?
Its survivor count is 6 of 10.

And the survivor count (dose: 4.4 mg/kg/injection, schedule: Q04DX003 (ip), vehicle: saline with Tween-80)?
Its survivor count is 5 of 10.

What about the survivor count (dose: 4.8 mg/kg/injection, schedule: Q01DX001 (ip), vehicle: saline with Tween-80) of the same compound?
Its survivor count is 6 of 10.

And the survivor count (dose: 4.8 mg/kg/injection, schedule: Q04DX003 (ip), vehicle: saline with Tween-80)?
Its survivor count is 3 of 10.

What about the survivor count (dose: 6.25 mg/kg/injection, schedule: Q04DX003 (ip), vehicle: saline sonified) of the same compound?
The survivor count was 4 of 6.

What about the survivor count (dose: 7.4 mg/kg/injection, schedule: Q01DX001 (ip), vehicle: saline with Tween-80) of the same compound?
Its survivor count is 0 of 10.

What about the survivor count (dose: 7.4 mg/kg/injection, schedule: Q04DX003 (ip), vehicle: saline with Tween-80) of the same compound?
The survivor count was 0 of 10 and 3 of 10.

And the survivor count (dose: 11.0 mg/kg/injection, schedule: Q01DX001 (ip), vehicle: saline with Tween-80)?
The survivor count was 0 of 10 and 1 of 10.

And the survivor count (dose: 11.0 mg/kg/injection, schedule: Q04DX003 (ip), vehicle: saline with Tween-80)?
The survivor count was 0 of 10 and 5 of 10.

And the survivor count (dose: 12.5 mg/kg/injection, schedule: Q04DX003 (ip), vehicle: saline sonified)?
Its survivor count is 4 of 6.

What about the survivor count (dose: 16.5 mg/kg/injection, schedule: Q01DX001 (ip), vehicle: saline with Tween-80) of the same compound?
The survivor count was 0 of 10.

And the survivor count (dose: 16.5 mg/kg/injection, schedule: Q04DX003 (ip), vehicle: saline with Tween-80)?
Its survivor count is 1 of 10.

And the survivor count (dose: 17.0 mg/kg/injection, schedule: Q01DX001 (ip), vehicle: saline with Tween-80)?
Its survivor count is 0 of 10.

What about the survivor count (dose: 17.0 mg/kg/injection, schedule: Q04DX003 (ip), vehicle: saline with Tween-80) of the same compound?
Its survivor count is 0 of 10.

And the survivor count (dose: 25.0 mg/kg/injection, schedule: Q01DX001 (ip), vehicle: saline with Tween-80)?
Its survivor count is 0 of 10.

What about the survivor count (dose: 25.0 mg/kg/injection, schedule: Q04DX003 (ip), vehicle: saline sonified) of the same compound?
Its survivor count is 1 of 6.

And the survivor count (dose: 25.0 mg/kg/injection, schedule: Q04DX003 (ip), vehicle: saline with Tween-80)?
Its survivor count is 1 of 10.

And the survivor count (dose: 50.0 mg/kg/injection, schedule: Q01DX001 (ip), vehicle: carboxymethylcellulose (CMC))?
The survivor count was 0 of 4.

And the survivor count [1]?
The survivor count was 0 of 4.

And the survivor count [2]?
The survivor count was 0 of 4.

And the survivor count [3]?
Its survivor count is 0 of 4.

`C=CCC(CC)(C(=O)O)C(=O)O` was tested. Which survivor count (dose: 400.0 mg/kg/injection, schedule: Q01DX009 (ip), vehicle: saline) did it give?
Its survivor count is 3 of 6.

Which survivor count (dose: 400.0 mg/kg/injection, schedule: Q04DX003 (ip), vehicle: saline) does the source give for `c1ccc(C[N+]23CC[N+](Cc4ccccc4)(CC2)CC3)cc1` here?
Its survivor count is 0 of 6.

With `C/C(=N\Sc1ccccc1)c1ccccc1O` as the compound, how does the survivor count (dose: 400.0 mg/kg/injection, schedule: Q04DX002 (ip), vehicle: other) read?
The survivor count was 1 of 3.

How did the survivor count (dose: 200.0 mg/kg/injection, schedule: Q01DX001 (ip), vehicle: other) turn out when `C1=Nc2c(ncnc2SCc2ccccc2)NN1` was run?
Its survivor count is 2 of 4.

What about the survivor count (dose: 400.0 mg/kg/injection, schedule: Q01DX001 (ip), vehicle: other) of the same compound?
Its survivor count is 0 of 4.

How did the survivor count (dose: 200.0 mg/kg/injection, schedule: Q01DX009 (ip), vehicle: saline with Tween-80) turn out when `Cc1cn(C2C=CC(CO)O2)c(=O)[nH]c1=O` (configuration not stated) was run?
Its survivor count is 6 of 6.

Which survivor count (dose: 200.0 mg/kg/injection, schedule: Q04DX003 (ip), vehicle: saline with Tween-80) does the source give for `CC(C)C(CN)(CCCN1CCCCC1)c1cccc2ccccc12` (configuration not stated) here?
The survivor count was 2 of 6.

What about the survivor count (dose: 400.0 mg/kg/injection, schedule: Q04DX003 (ip), vehicle: saline with Tween-80) of the same compound?
Its survivor count is 0 of 6.

How did the T/C (dose: 26.0 mg/kg/injection, schedule: Q01DX015 (ip), vehicle: carboxymethylcellulose (CMC)) turn out when `Cc1ccc(NC(=O)N(CCI)N=O)cc1` was run?
Its T/C is 125 % of control.

And the T/C (dose: 40.0 mg/kg/injection, schedule: Q01DX015 (ip), vehicle: carboxymethylcellulose (CMC))?
Its T/C is 129 % of control.

What about the T/C (dose: 58.0 mg/kg/injection, schedule: Q01DX015 (ip), vehicle: carboxymethylcellulose (CMC)) of the same compound?
Its T/C is 148 % of control.

What about the T/C (dose: 60.0 mg/kg/injection, schedule: Q01DX015 (ip), vehicle: carboxymethylcellulose (CMC)) of the same compound?
The T/C was 127 % of control.

And the T/C (dose: 88.0 mg/kg/injection, schedule: Q01DX015 (ip), vehicle: carboxymethylcellulose (CMC))?
The T/C was 125 % of control.

What about the T/C [1] of the same compound?
The T/C was 126 % of control.

What about the T/C (dose: 133.0 mg/kg/injection, schedule: Q01DX015 (ip), vehicle: carboxymethylcellulose (CMC)) of the same compound?
Its T/C is 125 % of control.

And the T/C [2]?
Its T/C is 138 % of control.

What about the T/C (dose: 266.0 mg/kg/injection, schedule: Q01DX001 (ip), vehicle: carboxymethylcellulose (CMC)) of the same compound?
The T/C was 136 % of control.

And the T/C [3]?
Its T/C is 140 % of control.

And the T/C (dose: 600.0 mg/kg/injection, schedule: Q01DX001 (ip), vehicle: carboxymethylcellulose (CMC))?
Its T/C is 126 % of control [5 of 6 alive].

With `COc1ccc(N2C(=O)C3C(C2=O)C2c4ccccc4C3C3CCCCN32)cc1` (configuration not stated) as the compound, how does the survivor count (dose: 150.0 mg/kg/injection, schedule: Q01DX001 (ip), vehicle: other) read?
Its survivor count is 1 of 6.

And the survivor count (dose: 300.0 mg/kg/injection, schedule: Q01DX001 (ip), vehicle: other)?
The survivor count was 0 of 6.

Which results are given for `O=C(NC(=S)Nc1cccc(Cl)c1)c1ccccc1F`?
survivor count (dose: 200.0 mg/kg/injection, schedule: Q01DX009 (ip), vehicle: Klucel (hydroxypropylcellulose) (HPC)): 6 of 6; survivor count [4]: 6 of 6

`C[C@H](CCC[C@H](C)OS(=O)(=O)c1ccccc1)OS(=O)(=O)c1ccccc1` was tested. Which T/C [5] did it give?
The T/C was 127 and 133 % of control.

How did the survivor count [5] turn out when `O=C(O)CSCCSCC(=O)O` was run?
The survivor count was 6 of 6.

What about the survivor count (dose: 400.0 mg/kg/injection, schedule: Q01DX009 (ip), vehicle: saline with Tween-80) of the same compound?
The survivor count was 0 of 6 and 2 of 6.

Which survivor count (dose: 200.0 mg/kg/injection, schedule: Q01DX001 (ip), vehicle: water) does the source give for `CC1(C)CC(OP(=O)(OC2CC(C)(C)N(O)C(C)(C)C2)OC2CC(C)(C)N(O)C(C)(C)C2)CC(C)(C)N1O` here?
Its survivor count is 3 of 3.

With `CCCc1nc2c(OC)ccc(OC)c2nc1C` as the compound, how does the survivor count [4] read?
Its survivor count is 0 of 6.
